Source: PubChem BioAssay AID540276 (National Center for Advancing Translational Sciences (NCATS), 2011)
Several values for one entry are separate records, joined by “and”; a condition that tells them apart may be missing. Equal entries are not always repeated. In all, about 300,000 compounds went through this assay and about 5,400 (1.8%) were called active. The inconclusive results got no clear call from the source; some entries with a clear call stand among them for comparison. Calls come from the whole dose curve; tested in HEK293 cells. Potencies beside an inconclusive call are fits to weak or partial responses and may not hold up.
Potency is the fitted concentration of half-maximal effect.

Experiment: qHTS for inhibitors of binding or entry into cells for Marburg Virus
Conditions: Marburg virus pseudotyped entry inhibition, cell reporter; series mostly up to 37.8 µM
In the case of `Cc1c(C)c2c(OCC(=O)N[C@@H](CC(C)C)C(=O)O)cc3c(c2oc1=O)CCC(C)(C)O3`, the Potency is reported as inconclusive: 3.55 µM [activator, partial curve, poor fit]. With `Cc1ccc(Cl)cc1NC(=S)N(CCN(C)C)C(C)c1ccccn1` (stereo unspecified) the Potency was inconclusive: 35.5 µM [inhibitor, single point]. With `COc1ccccc1C(=O)Nc1ccc(N2CCN(C(C)=O)CC2)cc1` the Potency was inconclusive: 31.6 µM [activator, single point]. With `Cc1cccc(NC(=O)CN2C(=O)C(c3ccc(F)cc3)=NC23CCCCCC3)c1` the Potency was inconclusive: 10 µM [inhibitor, partial curve, poor fit]. With `CCN1CCN(Cc2ccccc2NC(=O)Nc2ccc(C)cc2)CC1` the Potency was inconclusive: 3.16 µM [activator, full curve, poor fit]. In the case of `COc1ccc(-c2cc(NC(=O)c3cncn3-c3ccccc3)ccc2OC)cc1`, the Potency is reported as inconclusive: 3.16 µM [inhibitor, partial curve, poor fit]. With `Cc1ccc(NC(=O)COc2ccccc2)cc1S(=O)(=O)N1CCCCCC1` the Potency was inconclusive: 17.8 µM [inhibitor, single point]. With `COc1ccc(N=C(C)C2=C(O)CSC2=O)cc1` the Potency was inconclusive: 2.31 µM [activator, single point]. In the case of `Nc1nnc(-c2ccc([N+](=O)[O-])o2)s1`, the Potency is reported as inconclusive: 28.2 µM [inhibitor, single point]. In the case of `CCCN(CCC)CC(O)CN(c1ccccc1)S(=O)(=O)c1ccc(C)cc1` (stereo unspecified), the Potency is reported as inconclusive: 10.3 µM [inhibitor, partial curve, poor fit]. In the case of `Nc1nn(-c2ccccc2)c(N)c1N=Nc1ccc2c(c1)OCO2`, the Potency is reported as active: 8.91 µM. In the case of `O=C(NN1C(=O)C2C3c4ccccc4C(c4ccccc43)[C@@H]2C1=O)c1ccccc1` (stereo partly specified), the Potency is reported as inconclusive: 35.5 µM [activator, single point]. For `CCOc1ccc2nc(SCc3cccc(C)c3)nc(C)c2c1`, the Potency was “inactive”. In the case of `CCOC(=O)c1[nH]c(Cc2[nH]c(C(=O)OCC)c(C)c2CCC(=O)OC)c(CCC(=O)OC)c1C`, the Potency is reported as “inactive”. With `Cc1cccc(NC(=O)Nc2nnc(-c3ccccc3)o2)c1` the Potency was inconclusive: 35.5 µM [activator, partial curve, poor fit]. With `COc1ccc(/C=N/n2nnnc2N)c(OC)c1` the Potency was inconclusive: 35.5 µM [activator, single point]. In the case of `COC(=O)c1ccc(NC(=O)CN(C)S(=O)(=O)c2ccc(Br)s2)cc1`, the Potency is reported as “inactive”. With `Cc1ccc2nc(-c3ccc(Cl)s3)c(Nc3ccc4c(c3)OCCO4)n2c1` the Potency was inconclusive: 3.55 µM [activator, partial curve, poor fit]. In the case of `Cc1ccc(-c2onc3ccc(C4OCCO4)cc23)cc1`, the Potency is reported as “inactive”. With `Nc1nnn(Cc2ccccc2)n1` the Potency was “inactive”. In the case of `O=C(OCc1ccccc1)/C(=C/c1cccc([N+](=O)[O-])c1)NC(=O)c1ccco1`, the Potency is reported as inconclusive: 35.5 µM [inhibitor, single point]. With `O=C(CN(C(=O)Cn1nnc(-c2cccs2)n1)c1ccc2c(c1)OCCO2)NCc1ccccc1` the Potency was inconclusive: 35.5 µM [inhibitor, single point]. For `Cc1cc(C(=O)COC(=O)Cn2c(C(F)(F)F)nc3ccccc32)c(C)n1Cc1ccco1`, the Potency was “inactive”. In the case of `Cc1ccc2[nH]c(=O)c(CN(CCCN(C)C)C(=O)Nc3cccc(Cl)c3)cc2c1`, the Potency is reported as inconclusive: 18.3 µM [inhibitor, partial curve, poor fit]. For `COc1ccc(CCNC(=O)c2ccc3c(c2)N(Cc2ccccc2)CCS3)cc1OC`, the Potency was inconclusive: 20 µM [inhibitor, single point]. With `COc1ccc(-c2c(C)nn3c(N4CCCCCC4)cc(C)nc23)cc1OC` the Potency was inconclusive: 35.5 µM [inhibitor, single point]. In the case of `Cc1cc(NC(=O)C2CC(=O)OC2c2ccccc2)no1` (stereo unspecified), the Potency is reported as “inactive”. With `Cc1ccc(C2C3CSCC=C3C(C#N)=C(N)C2(C#N)C#N)cc1` (stereo unspecified) the Potency was inconclusive: 29.1 µM [inhibitor, single point]. For `CCOC(=O)c1cc(C(=O)c2cc(Cl)ccc2O)coc1=N`, the Potency was inconclusive: 3.16 µM [activator, single point]. With `COC(=O)c1c(SCc2ccc(C#N)cc2)nc(=O)[nH]c1C` the Potency was inconclusive: 17.8 µM [inhibitor, single point]. With `O=C(N/C(=C/c1ccc(Cl)cc1)C(=O)N1CCOCC1)c1ccccc1` the Potency was inconclusive: 35.5 µM [activator, single point]. For `CN(C)Cc1c(-c2ccc(Cl)cc2)nc2ccc(Cl)cn12`, the Potency was inconclusive: 10 µM [inhibitor, partial curve, poor fit]. With `CC(C)c1ccc(NS(=O)(=O)c2cc(Br)cc3c2N(C(=O)C2CC2)CC3)cc1` the Potency was inconclusive: 1.26 µM [inhibitor, partial curve, poor fit]. With `CSc1ccccc1NC(=O)CN(Cc1ccccc1)S(C)(=O)=O` the Potency was “inactive”. For `CC(C)CC(=O)NC(=S)Nc1cc(C(F)(F)F)ccc1N1CCOCC1`, the Potency was inconclusive: 1.26 µM [inhibitor, full curve, poor fit]. For `O=C1c2ccccc2CN1Cc1ccccc1`, the Potency was inconclusive: 2.51 µM [inhibitor, full curve]. With `CN(C)CC(C)(C)CNCc1cc(=O)oc2ccc3ccccc3c12` the Potency was inconclusive: 11.2 µM [inhibitor, partial curve, poor fit]. In the case of `O=[N+]([O-])c1ccc(NCCCNS(=O)(=O)c2ccccc2)cc1`, the Potency is reported as inconclusive: 35.5 µM [inhibitor, single point]. In the case of `CCSC1=N/C(=C\c2cccnc2)C(=O)N1c1ccccc1`, the Potency is reported as “inactive”. With `CCOc1ccc(NCc2cccn2-c2nnc(N3CCC(C(=O)NCCCN4CC(C)CC(C)C4)CC3)s2)cc1` (stereo unspecified) the Potency was inconclusive: 10 µM [inhibitor, partial curve, poor fit]. For `Cc1c(O)c(=O)c2ccccc2n1C`, the Potency was “inactive”. In the case of `Cc1ccc(CNC(=O)c2ccc(Nc3nc4ccccc4n4nnnc34)cc2)cc1`, the Potency is reported as inconclusive: 12.6 µM [activator, partial curve, poor fit]. For `O=C1C/C(=C/NCc2ccccc2)C(=O)N1`, the Potency was inconclusive: 1 µM [activator, full curve, poor fit]. For `O=C(Nc1nccc(-c2cccs2)n1)c1cccs1`, the Potency was “inactive”. With `Cc1ccc(S(=O)(=O)N2CCN(CCNC(=O)C(=O)Nc3ccc(F)cc3)CC2)cc1` the Potency was inconclusive: 35.5 µM [inhibitor, single point]. For `O=C(c1cccc(Br)c1)N1CCN(S(=O)(=O)N2CCCCCC2)CC1`, the Potency was “inactive”. In the case of `Cc1cc(NC(=O)Nc2nnc(N3CCCCCC3)s2)ccc1Br`, the Potency is reported as inconclusive: 6.31 µM [activator, single point]. In the case of `CC12CCC3C(=CCc4cc(O)ccc43)C1CC(=NO)C2O` (stereo unspecified), the Potency is reported as inconclusive: 3.16 µM [activator, full curve, poor fit]. With `C[C@](N)(Cc1ccc(O)cc1)C(=O)O` the Potency was “inactive and inconclusive: 3.16 µM [inhibitor, full curve, poor fit]”. In the case of `Cc1ccn2c(=O)nc(SCC(=O)Nc3ccc4c(c3)OCCO4)nc2c1`, the Potency is reported as inconclusive: 20 µM [inhibitor, partial curve, poor fit]. For `Cc1sc2nc(CN3CCCC3)nc(Cl)c2c1C`, the Potency was inconclusive: 2.31 µM [inhibitor, partial curve, poor fit]. For `COc1ccccc1-c1nnc(NC(=O)CSc2nncn2C)s1`, the Potency was inconclusive: 10 µM [inhibitor, partial curve, poor fit]. In the case of `COc1cc(NC(=O)c2cccnc2)c(OC)cc1NC(=O)c1ccc(Br)cc1`, the Potency is reported as inconclusive: 0.631 µM [inhibitor, full curve, poor fit]. For `CCN(CC(=O)Nc1ccc(NC(C)=O)cc1)C(=O)c1oc2ccccc2c1C`, the Potency was “inactive”. In the case of `O=C1N=C2SCCN2/C1=C\c1ccc(Cl)cc1`, the Potency is reported as inconclusive: 14.1 µM [inhibitor, partial curve, poor fit]. For `O=C(COC(=O)/C=C/c1cccc(Cl)c1Cl)Nc1ccc2[nH]c(=O)[nH]c2c1`, the Potency was inconclusive: 20 µM [inhibitor, single point]. For `COc1ccc(-n2cnc3c(sc4nccc(N(C)C)c43)c2=O)cc1`, the Potency was inconclusive: 1 µM [inhibitor, single point]. With `CC(=O)N/N=C(\C)c1ccc2c(c1)OCCO2` the Potency was “inactive”. For `O=C(N/N=C/C=C/c1ccco1)c1ccccc1Cl`, the Potency was inconclusive: 35.5 µM [inhibitor, single point]. In the case of `CC(C)Oc1ccc(C2CC(=O)N(c3cccc(C(=O)O)c3)C2=O)cc1` (stereo unspecified), the Potency is reported as inconclusive: 6.51 µM [inhibitor, single point]. In the case of `Fc1ccccc1OCCCCCCN1CCCC1`, the Potency is reported as “inactive”. In the case of `COc1ccccc1CNC(=O)c1c(N)n(CCCN2CCOCC2)c2nc3ccccc3nc12`, the Potency is reported as inconclusive: 13 µM [inhibitor, partial curve, poor fit]. With `COc1ccc(C(C(=O)Nc2ccc(F)cc2)N(C(=O)Cn2nnc3ccccc32)C2CC2)cc1` (stereo unspecified) the Potency was inconclusive: 11.6 µM [inhibitor, partial curve, poor fit]. For `O=C(OCc1nc2ccccc2s1)c1ccco1`, the Potency was inconclusive: 35.5 µM [activator, single point]. In the case of `CCOc1cccc(CC(=O)N2CCc3c([nH]c4ccc(OC)cc34)C2c2ccc(F)cc2)c1OCC` (stereo unspecified), the Potency is reported as “inactive”. With `OC1(c2ccc(Cl)cc2)CCN(Cc2cn[nH]c2-c2ccc(F)cc2)CC1` the Potency was inconclusive: 11.2 µM [inhibitor, partial curve, poor fit].
